Data: the supplement of paper PMC7752906
Counter-ions that a name gives are not always drawn. The list shows a part of the results. Single values are uncertain here, since repeats match poorly.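 Wells held roughly 40 S. mansoni schistosomula, imaged in bright field over time against wells given 0.1% DMSO. The paper defines hits as drugs with a Mahalanobis distance of at least 2.47, three standard deviations above the DMSO control mean. Degeneracy is the proportion of worms classified as opaque.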 Square brackets hold non-standard residues; d marks the D form. Peptide text beside a SMILES is read from it. pGlu = O=C1CC[C@@H](C(=O)O)N1; Thz = O=C(O)[C@@H]1CSCN1

Tested on: Schistosoma mansoni schistosomula
Assay: degeneracy (percent of somules classified as degenerate/opaque); higher = more parasite degeneration/death; extreme values may be limits of the assay
Conditions: 10 µM; 72 h

Row | Compound | degeneracy [%]
1 | OC(CCCN1CCCCC1)(c1ccccc1)c1ccccc1 [Diphenidol] | 13.6
2 | CCN(CC)CCOC(=O)C(c1ccccc1)c1ccccc1 [Adiphenine Hydrochloride] | 16
3 | CCOC(=O)c1ccc(N)cc1 [Benzocaine] | 9.68
4 | CCCCC1(COC(=O)CCC(=O)O)C(=O)N(c2ccccc2)N(c2ccccc2)C1=O [Suxibuzone] | 0
5 | COc1cc(NC(C)CCCN)c2ncccc2c1 (stereo not given) [primaquine] | 91.7
6 | CSc1ccc2c(c1)N(CCC1CCCCN1C)c1ccccc1S2 (stereo not given) [thioridazine] | 100
7 | CC1=C(/C=C/C(C)=C/C=C/C(C)=C\C(=O)O)C(C)(C)CCC1 [Isotretinoin] | 6.06
8 | CC/C(=C(/CC)c1ccc(O)cc1)c1ccc(O)cc1 [Diethylstilbestrol] | 8
9 | C=CCOC(Cn1ccnc1)c1ccc(Cl)cc1Cl (stereo not given) [Enilconazole] | 3.12
10 | CC(=O)OCC(=O)[C@H]1CC[C@H]2[C@@H]3CCC4=CC(=O)CC[C@]4(C)[C@H]3CC[C@]12C [Desoxycorticosterone Acetate] | 4.17
11 | CC(CN(C)C)CN1c2ccccc2Sc2ccccc21 (stereo not given) [Trimeprazine Tartrate] | 100
12 | CCN(CC)CCOCCOC(=O)C(CC)(CC)c1ccccc1 [Oxelaidin Citrate] | 17.4
13 | CC(=O)OCC(=O)[C@@]1(OC(C)=O)[C@@H](C)C[C@H]2[C@@H]3C[C@H](F)C4=CC(=O)C=C[C@]4(C)[C@@]3(F)[C@@H](O)C[C@@]21C [Diflorasone Diacetate] | 0
14 | C[C@]1(Cn2ccnn2)[C@H](C(=O)O)N2C(=O)C[C@H]2S1(=O)=O [Tazobactam] | 13.3
15 | C=CCSCC1Nc2cc(Cl)c(S(N)(=O)=O)cc2S(=O)(=O)N1 (stereo not given) [Althiazide] | 3.23
16 | NC(=O)NS(=O)(=O)c1ccc(N)cc1 [Sulfacarbamide] | 0
17 | CC(=O)N(CC(O)CN(C(C)=O)c1c(I)c(C(=O)NCC(O)CO)c(I)c(C(=O)NCC(O)CO)c1I)c1c(I)c(C(=O)NCC(O)CO)c(I)c(C(=O)NCC(O)CO)c1I (stereo not given) [Iodixanol] | 7.14
18 | c1ccc(CN(CC2=NCCN2)c2ccccc2)cc1 [Antazoline] | 22.7
19 | CN(C)CC/C=C1/c2ccccc2COc2ccc(CC(=O)O)cc21 [Olopatadine Hcl] | 8.7
20 | COc1cc(/C=C/C(=O)N2CCCCCCC2)cc(OC)c1OC [Cinoctramide] | 3.45
21 | OCc1ccccc1O [Salicyl Alcohol] | 7.5
22 | COc1c(N2CCNC(C)C2)c(F)cc2c(=O)c(C(=O)O)cn(C3CC3)c12 (stereo not given) [Gatifloxacin] | 2.27
23 | O=C(c1ccccc1)c1ccc2n1CCC2C(=O)O (stereo not given) [Ketorolac Tromethamine] | 5.56
24 | CN(C)CC(c1ccc(O)cc1)C1(O)CCCCC1 (stereo not given) [Desvenlafaxine Succinate] | 2.7
25 | NC(=O)[C@@H]1CCCN1C(=O)[C@H](Cc1c[nH]cn1)NC(=O)[C@@H]1CCC(=O)N1 [Protirelin] | 14.3
26 | CC(=O)Oc1cccc(C)c1 [Meta-cresyl Acetate] | 22.9
27 | CC(C)(O)c1ccccc1CC[C@@H](SCC1(CC(=O)O)CC1)c1cccc(/C=C/c2ccc3ccc(Cl)cc3n2)c1 [montelukast] | 0

Reformatted with tabs: entries from further up.
Row	Compound	degeneracy [%]
7	CC1=C(/C=C/C(C)=C/C=C/C(C)=C\C(=O)O)C(C)(C)CCC1 [Isotretinoin]	6.06
8	CC/C(=C(/CC)c1ccc(O)cc1)c1ccc(O)cc1 [Diethylstilbestrol]	8
9	C=CCOC(Cn1ccnc1)c1ccc(Cl)cc1Cl (stereo not given) [Enilconazole]	3.12
10	CC(=O)OCC(=O)[C@H]1CC[C@H]2[C@@H]3CCC4=CC(=O)CC[C@]4(C)[C@H]3CC[C@]12C [Desoxycorticosterone Acetate]	4.17
11	CC(CN(C)C)CN1c2ccccc2Sc2ccccc21 (stereo not given) [Trimeprazine Tartrate]	100
12	CCN(CC)CCOCCOC(=O)C(CC)(CC)c1ccccc1 [Oxelaidin Citrate]	17.4
13	CC(=O)OCC(=O)[C@@]1(OC(C)=O)[C@@H](C)C[C@H]2[C@@H]3C[C@H](F)C4=CC(=O)C=C[C@]4(C)[C@@]3(F)[C@@H](O)C[C@@]21C [Diflorasone Diacetate]	0
14	C[C@]1(Cn2ccnn2)[C@H](C(=O)O)N2C(=O)C[C@H]2S1(=O)=O [Tazobactam]	13.3
15	C=CCSCC1Nc2cc(Cl)c(S(N)(=O)=O)cc2S(=O)(=O)N1 (stereo not given) [Althiazide]	3.23
16	NC(=O)NS(=O)(=O)c1ccc(N)cc1 [Sulfacarbamide]	0
17	CC(=O)N(CC(O)CN(C(C)=O)c1c(I)c(C(=O)NCC(O)CO)c(I)c(C(=O)NCC(O)CO)c1I)c1c(I)c(C(=O)NCC(O)CO)c(I)c(C(=O)NCC(O)CO)c1I (stereo not given) [Iodixanol]	7.14
18	c1ccc(CN(CC2=NCCN2)c2ccccc2)cc1 [Antazoline]	22.7
19	CN(C)CC/C=C1/c2ccccc2COc2ccc(CC(=O)O)cc21 [Olopatadine Hcl]	8.7
20	COc1cc(/C=C/C(=O)N2CCCCCCC2)cc(OC)c1OC [Cinoctramide]	3.45
21	OCc1ccccc1O [Salicyl Alcohol]	7.5
22	COc1c(N2CCNC(C)C2)c(F)cc2c(=O)c(C(=O)O)cn(C3CC3)c12 (stereo not given) [Gatifloxacin]	2.27
23	O=C(c1ccccc1)c1ccc2n1CCC2C(=O)O (stereo not given) [Ketorolac Tromethamine]	5.56
24	CN(C)CC(c1ccc(O)cc1)C1(O)CCCCC1 (stereo not given) [Desvenlafaxine Succinate]	2.7
25	NC(=O)[C@@H]1CCCN1C(=O)[C@H](Cc1c[nH]cn1)NC(=O)[C@@H]1CCC(=O)N1 [Protirelin]	14.3
26	CC(=O)Oc1cccc(C)c1 [Meta-cresyl Acetate]	22.9
27	CC(C)(O)c1ccccc1CC[C@@H](SCC1(CC(=O)O)CC1)c1cccc(/C=C/c2ccc3ccc(Cl)cc3n2)c1 [montelukast]	0

Later entries.

Row | Compound | degeneracy [%]
28 | CC(C)(O)c1ccccc1CC[C@@H](SCC1(CC(=O)O)CC1)c1cccc(/C=C/c2ccc3ccc(Cl)cc3n2)c1 [Montelukast Sodium] | 7.89
29 | CCN[C@@H]1C[C@H](N)[C@@H](O[C@H]2OC(CN)=CC[C@H]2N)[C@H](O)[C@H]1O[C@H]1OC[C@](C)(O)[C@H](NC)[C@H]1O [Netilmicin Sulfate] | 9.43
30 | Cc1cc(N)c2ccccc2[n+]1CCCCCCCCCC[n+]1c(C)cc(N)c2ccccc21 [Dequalinium Chloride] | 14.7
31 | COc1ccccc1OCC(O)COC(N)=O (stereo not given) [Methocarbamol] | 4.76
32 | CCNC(=O)/C=C/c1cccc(Br)c1 [Cinromide] | 6.9
33 | COc1ccc(Cl)cc1C(=O)NCCc1ccc(S(=O)(=O)NC(=O)NC2CCCCC2)cc1 [Glibenclamide, Glyburide] | 0
34 | Nc1nc(=O)n([C@@H]2CS[C@H](CO)O2)cc1F [Emtricitabine] | 5.26
35 | CCCCCCNC(=O)n1cc(F)c(=O)[nH]c1=O [Carmofur] | 45.7
36 | CCCOc1ccccc1-c1nc2[nH]nnc2c(=O)[nH]1 [Zaprinast] | 3.45
37 | CN1CCN2c3ncccc3Cc3ccccc3C2C1 (stereo not given) [Mirtazapine] | 15.2
38 | COc1cc(NS(=O)(=O)c2ccc(N)cc2)ncn1 [Sulfamonomethoxine] | 0
39 | Cc1cc(C)nc(NS(=O)(=O)c2ccc(N)cc2)n1 [Sulfamethazine] | 11.1
40 | CN(C(=O)CN(CCO)CC(=O)N(C)C(C)(C)Cc1ccccc1)C(C)(C)Cc1ccccc1 [oxethazaine] | 100
41 | O=C(O)c1ccc[n+]([O-])c1 [Oxiniacic Acid] | 12.9
42 | NC[C@H]1O[C@H](O[C@H]2[C@H](O)[C@@H](O[C@H]3O[C@H](CO)[C@@H](O)[C@H](N)[C@H]3O)[C@H](N)C[C@@H]2N)[C@H](N)C[C@@H]1O [Tobramycin] | 5.41
43 | CCOC(=O)Nc1nc2ccccc2[nH]1 [Lobendazole] | 0
44 | CCOC(=O)/C=C(C)/C=C/C=C(C)/C=C/c1c(C)cc(OC)c(C)c1C [Etretinate] | 11.1
45 | O=C(CCBr)N1CCN(C(=O)CCBr)CC1 [Pipobroman] | 2.7
46 | CCCCC1C(=O)N(c2ccccc2)N(c2ccc(O)cc2)C1=O (stereo not given) [Oxyphenbutazone] | 24.3
47 | CC(=O)Nc1ccc(OC(=O)c2ccccc2O)cc1 [Acetaminosalol] | 8.82
48 | COc1cc2nc(N3CCN(C(=O)C4COc5ccccc5O4)CC3)nc(N)c2cc1OC (stereo not given) [Doxazosin] | 14.3
49 | O=P(O)(O)C(O)(Cn1ccnc1)P(=O)(O)O [Zoledronic Acid] | 14.8
50 | CC(C)(CO)[C@@H](O)C(=O)NCCC(=O)O [Pantothenic Acid] | 11.1
51 | Cc1cc(C(C)(C)C)cc(C)c1CC1=NCCN1 [Xylometazoline] | 23.1
52 | CCN(CCCCOC(=O)c1ccc(OC)c(OC)c1)C(C)Cc1ccc(OC)cc1 (stereo not given) [Mebeverine] | 9.09
53 | CCN(CC)CCOCCOC(=O)C1(c2ccccc2)CCCC1 [Carbetapentane Citrate] | 7.41
54 | C[C@@H]1C[C@H]2[C@@H]3CCC4=CC(=O)C=C[C@]4(C)[C@@]3(F)[C@@H](O)C[C@]2(C)[C@H]1C(=O)CO [Desoximetasone] | 3.03

Row | Compound | degeneracy [%]
55 | CC#CCn1c(N2CCC[C@@H](N)C2)nc2c1c(=O)n(Cc1nc(C)c3ccccc3n1)c(=O)n2C [Linagliptin] | 2.63
56 | NC[C@H](O)c1ccc(O)c(O)c1 [Norepinephrine] | 0
57 | CCCCCCOc1ccccc1C(N)=O [Exalamide] | 100
58 | O=C(O)C1=C(CSc2nnnn2CS(=O)(=O)O)CS[C@@H]2[C@H](NC(=O)[C@H](O)c3ccccc3)C(=O)N12 [Cefonicid Sodium] | 0
59 | CNCC(O)c1ccc(O)c(O)c1 (stereo not given) [Racepinephrine] | 2.63
60 | Nc1ccc(S(=O)(=O)Nc2nccs2)cc1 [Sulfathiazole] | 28.6
61 | Cc1ccc(-c2cc(C(F)(F)F)nn2-c2ccc(S(N)(=O)=O)cc2)cc1 [Celecoxib] | 28
62 | COC(=O)[C@H](Cc1ccccc1)NC(=O)[C@@H](N)CC(=O)O [Aspartame] (H-Asp-Phe-OMe) | 8.33
63 | COc1cc(CNC(=O)CCCC/C=C/C(C)C)ccc1O [Capsaicin] | 6.52
64 | O=C(NCCCN1CCOCC1)c1ccc(Cl)cc1 [Eprobemide] | 3.7
65 | C[C@]12CC[C@@H]3c4ccc(O)cc4C[C@@H](CCCCCCCCC[S+]([O-])CCCC(F)(F)C(F)(F)F)[C@H]3[C@@H]1CC[C@@H]2O (stereo not given in full) [Fulvestrant] | 11.1
66 | CO/N=C(\C(=O)N[C@@H]1C(=O)N2C(C(=O)O)=C(COC(C)=O)CS[C@H]12)c1csc(N)n1 [Cefotaxime Sodium] | 3.45
67 | CO/N=C(\C(=O)N[C@@H]1C(=O)N2C(C(=O)O)=C(COC(C)=O)CS[C@H]12)c1csc(N)n1 [Cefotaxime] | 8.89
68 | CC(=O)Nc1c(I)cc(I)c(C(=O)O)c1I [Acetriazoic Acid] | 4.88
69 | Cc1cc2cc3c(C)cc(=O)oc3c(C)c2o1 [Trioxsalen] | 11.8
70 | CC(=O)Nc1nnc(S(N)(=O)=O)s1 [Acetazolamide] | 0
71 | CC(C)Oc1ccc2c(=O)c(-c3ccccc3)coc2c1 [Ipriflavone] | 11.8
72 | Clc1ccc2nsnc2c1NC1=NCCN1 [Tizanidine Hydrochloride] | 13.3
73 | O=C(CCCl)NCCc1ccccc1 [Fenaclon] | 5.77
74 | Nc1ncnc2c1ncn2[C@@H]1O[C@H](CO)[C@@H](O)[C@@H]1O [Vidarabine] | 30
75 | C[C@H]1C[C@H]2[C@@H]3CCC4=CC(=O)C=C[C@]4(C)[C@@]3(F)[C@@H](O)C[C@]2(C)[C@@]1(O)C(=O)COP(=O)(O)O [Betamethasone Sodium Phosphate] | 2.44
76 | CC[C@H](C)[C@H](N)C(=O)O [Isoleucine (l)] | 8.11
77 | CCOc1nc2cccc(C(=O)O)c2n1Cc1ccc(-c2ccccc2-c2nnn[nH]2)cc1 [Candesartan] | 0
78 | O=C1CC[C@@H](C(=O)N2CSC[C@H]2C(=O)O)N1 [Pidotimod] ([pGlu]-[Thz]-OH) | 6.67
79 | Oc1c(Cl)cc(Cl)c2cccnc12 [chloroxine] | 100
80 | c1ccc(-c2ccc(C(c3ccccc3)n3ccnc3)cc2)cc1 (stereo not given) [Bifonazole] | 22.5
